Assay results: PubChem BioAssay AID1508600 (Functional Genomics Laboratory (NCATS/FGL), 2020)
Among all 53,000 sequences or so, about 3,700 (7%) were called active.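 Rule for the calls: active = gene knockdowns whose robust z-score for IL-1 alpha signal is at least 2 or at most -2, so actives lie on both sides; inactive = the rest.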 The list shows a part of the results.

Experiment: Components of the Cytosolic LPS Sensing Pathway: Gene Identification via Genome-wide siRNA Screen;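 note: robust z of the log signal after scaling to non-targeting control siRNA wells of the plate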
Conditions: RAW264.7 macrophages, IL-1a HTRF, actives lie on both sides, screened at 100 nM (by protocol), cells primed 5 h with Pam3CSK4 first
In short: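 Using IL-1a HTRF as read-out, the screen measured release from RAW264.7 cells after 48h siRNA knockdown (100 nM), 5 h Pam3CSK4 priming and 24 h cytosolic LipidA. Values were expressed relative to negative-control wells as robust z-scores.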

Q: For CGCAUACUGUAAAAACUUCTT against Fastkd3, which z-score is on record?
A: inactive: -1.08

Q: For GGAGAAGUCCAAAUUCGAGTT against Raly, which z-score is on record?
A: inactive: -0.277

Q: For GGCCGUCGGAAAAAGGAUGTT against Abcf1, which z-score is on record?
A: inactive: -0.378

Q: With CCUAUGUUUUAGCAAGCAGTT against Acyp2 as the sequence, how does the z-score read?
A: inactive: 0.758

Q: With GAGACUAAUAUAGUGAAUGTT against Foxj1 as the sequence, how does the z-score read?
A: inactive: -0.314

Q: With GGUGUACCUCUGAAAAAAATT against Zbp1 as the sequence, how does the z-score read?
A: inactive: -1.5

Q: With GGAGUUUGUGUUUUAUCUATT against Ppp1r3b as the sequence, how does the z-score read?
A: inactive: -0.175

Q: With GGUGUGGGAUUUCUACACUTT against Sbf1 as the sequence, how does the z-score read?
A: inactive: 0.0854

Q: With GGUGGUGGAACAAGAUGAGTT against Psen1 as the sequence, how does the z-score read?
A: inactive: -1.05

Q: Which z-score does the source give for GAGAAUGACGGACAAGUGUTT against Timm13 here?
A: inactive: 1.09

Q: For GGGAACAUGUAAACUAACGTT against Klf3, which z-score is on record?
A: inactive: 0.701

Q: Which z-score does the source give for GCCUCCCGGAAAUAUAGGUTT against Sipa1l3 here?
A: inactive: 0.429

Q: With GGUUCUUUUUGGUGUUAUGTT against Psme3 as the sequence, how does the z-score read?
A: inactive: -0.759

Q: For GGUAUUUUUUUCUCAGCCATT against Dhdh, which z-score is on record?
A: inactive: -0.937

Q: For GCCUUUAUCUACCGCCCAGTT against Fam120b, which z-score is on record?
A: inactive: -0.265

Q: For GCACCUAACUCUAGUUUUGTT against Golga7, which z-score is on record?
A: inactive: 1.22

Q: For GGUUGACCCUGGAAUCUCUTT against Hhatl, which z-score is on record?
A: inactive: -1.3

Q: Which z-score does the source give for CCCUACAUGGAUGAGAACUTT against Trnau1ap here?
A: inactive: -0.759

Q: With GCUCAUAGAGCAAAUACGUTT against Sall1 as the sequence, how does the z-score read?
A: inactive: -0.932

Q: With GUUGUAUUUCUUUGCCUUCTT against Olfr1098 as the sequence, how does the z-score read?
A: inactive: 1.76

Q: With GGGAUCCUGGAAAUUGUAATT against Esco1 as the sequence, how does the z-score read?
A: inactive: -1.36

Q: Which z-score does the source give for CCAAGAAAUGUAUGCCAUUTT against Slc26a2 here?
A: inactive: 1.02

Q: With GGAUGGAAAACUCAUCAUCTT against Gnb1 as the sequence, how does the z-score read?
A: inactive: 1.07

Q: Which z-score does the source give for GCCUGAUUAGCAAGUGAUGTT against Evx1 here?
A: inactive: -1.54

Q: Which z-score does the source give for GGAAGUAGAGACAGGAGGATT against Vamp5 here?
A: inactive: 0.996

Q: For GGGUGCUAAUCUGAAAGGUTT against Kctd9, which z-score is on record?
A: inactive: -1.43

Q: For GCACUAUCCACAUGCACAUTT against Olfr1281, which z-score is on record?
A: inactive: 0.469

Q: For CCCUCUAUCCUUAAACCAUTT against Erg28, which z-score is on record?
A: inactive: -0.549

Q: Which z-score does the source give for CCAAGUGUUACCUCACUACTT against Cables2 here?
A: inactive: -0.0931

Q: For GGGCUGUCUCAAUGAGAUGTT against Irgc1, which z-score is on record?
A: inactive: -0.752

Q: Which z-score does the source give for “GGAUUUGAACUCAGAUGUUTT against A430057M04Rik” here?
A: active: 2.15

Q: With GGCUCAUAUUUGCUACUGUTT against Gprc5d as the sequence, how does the z-score read?
A: inactive: 0.481

Q: Which z-score does the source give for GGAGAAAGCAAAAACUAUATT against Ube2z here?
A: inactive: -0.387

Q: With GGAGAAAGAAUCUGAAAAUTT against Kctd19 as the sequence, how does the z-score read?
A: inactive: -0.296

Q: With GGAUAUUCAUAGUAACACATT against Nmd3 as the sequence, how does the z-score read?
A: inactive: 0.697

Q: With GGGCCACAGUUUCAGCUUCTT against H6pd as the sequence, how does the z-score read?
A: inactive: 0.882

Q: For CCCAGAGGUAAAGAAGGUCTT against Tex29, which z-score is on record?
A: inactive: -1.81

Q: Which z-score does the source give for GGAGCCAGAACCUGAAAUUTT against Ankrd1 here?
A: active: 2.86

Q: For CGAAACAUCCCUAUGCUCUTT against Lsm3, which z-score is on record?
A: inactive: -0.641

Q: Which z-score does the source give for GGAAGUCACAAAUAAUUUGTT against Caprin1 here?
A: inactive: 1.67

Q: For GGCUGUGGAUUUCUCUCUGTT against Kng1, which z-score is on record?
A: inactive: -0.334

Q: Which z-score does the source give for GGAUGAAUAAGGACAGAUUTT against Phospho2 here?
A: inactive: 0.335

Q: With GGGAAUUAAACAAUAUUGCTT against Cd163 as the sequence, how does the z-score read?
A: inactive: 0.545

Q: For GGAAGUGAACCAGUUGAGATT against Pcdh7, which z-score is on record?
A: inactive: 0.496

Q: Which z-score does the source give for GCACCUGGGCCUUUGAAUATT against Hes2 here?
A: inactive: -0.754

Q: For CGUGAUGUACAUGCAGGAUTT against Slc48a1, which z-score is on record?
A: active: 2.83

Q: For GGUUACCCUUGAGAAGAACTT against Narf, which z-score is on record?
A: inactive: 0.518

Q: Which z-score does the source give for GGAAGUUCUUCCUAAGUACTT against Hsf2 here?
A: inactive: -1.41

Q: With GGAUGAGAAUAGUGCUAAATT against Arhgap26 as the sequence, how does the z-score read?
A: inactive: 1.39

Q: For GGUGAAUUUUCAGUUGAUATT against Serbp1, which z-score is on record?
A: inactive: -0.65

Q: With GGUAUUCCUUUUUUGUAGCTT against Mboat1 as the sequence, how does the z-score read?
A: inactive: 0.177

Q: For CCAAAUACUGUUCAAGAUGTT against Lypla1, which z-score is on record?
A: inactive: -0.463

Q: For GGACCAGAAUGCAACUCUUTT against Pex5, which z-score is on record?
A: inactive: -0.403

Q: Which z-score does the source give for CGCAUCCUAAGAAAUGACATT against Blvrb here?
A: inactive: 0.321
